Data taken from PubChem BioAssay AID504749, deposited by NCATS (2011).

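A panel of P. falciparum strains inside erythrocytes is exposed to compounds for three days, then a DNA-binding dye reports the amount of parasite DNA. Each compound was titrated across a series from about 0.000037 to 29 µM. The number is the fitted AC50, the concentration giving a half-maximal change in signal; a lower value means higher potency, whether the curve shows a decrease or an increase. Calls follow the curve class and fit quality: every row here is inconclusive, covering signal-raising curves and weak, poorly fitted, partial or highest-dose-only inhibition curves.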

Values are in µM. Every entry below has the call inconclusive. Only part of the assay is shown, chiefly results filed as inconclusive. Potencies fitted to partial, single-point or poorly fitting curves are rough.

| # | structure | setting | fitted potency (µM) | remark |
|---|---|---|---|---|
| 1 | `CC(=O)OC[C@H]1O[C@@](COC(C)=O)(O[C@H]2O[C@H](COC(C)=O)[C@@H](OC(C)=O)[C@H](OC(C)=O)[C@H]2OC(C)=O)[C@@H](OC(C)=O)[C@@H]1OC(C)=O` | N140 | 1.122 | inhibitor, single point |
| 2 | `CC(=O)OC[C@H]1O[C@@](COC(C)=O)(O[C@H]2O[C@H](COC(C)=O)[C@@H](OC(C)=O)[C@H](OC(C)=O)[C@H]2OC(C)=O)[C@@H](OC(C)=O)[C@@H]1OC(C)=O` | CP256 | 3.162 | inhibitor, single point |
| 3 | `C[n+]1cc2c3c(ccc2c2ccc4cc5c(cc4c21)OCO5)OCO3` | PC26 | 16.94 | inhibitor, single point |
| 4 | `C[n+]1cc2c3c(ccc2c2ccc4cc5c(cc4c21)OCO5)OCO3` | GB4 | 19.01 | inhibitor, single point |
| 5 | `C[n+]1cc2c3c(ccc2c2ccc4cc5c(cc4c21)OCO5)OCO3` | CP265 | 11.22 | inhibitor, single point |
| 6 | `C[n+]1cc2c3c(ccc2c2ccc4cc5c(cc4c21)OCO5)OCO3` | CP325 | 21.33 | inhibitor, single point |
| 7 | `C[n+]1cc2c3c(ccc2c2ccc4cc5c(cc4c21)OCO5)OCO3` | CP262 | 16.94 | inhibitor, single point |
| 8 | `C[n+]1cc2c3c(ccc2c2ccc4cc5c(cc4c21)OCO5)OCO3` | 7G8 | 15.85 | inhibitor, single point |
| 9 | `C[n+]1cc2c3c(ccc2c2ccc4cc5c(cc4c21)OCO5)OCO3` | CP247 | 17.78 | inhibitor, single point |
| 10 | `C[n+]1cc2c3c(ccc2c2ccc4cc5c(cc4c21)OCO5)OCO3` | CP217 | 11.22 | inhibitor, single point |
| 11 | `C[n+]1cc2c3c(ccc2c2ccc4cc5c(cc4c21)OCO5)OCO3` | CP256 | 17.78 | inhibitor, single point |
| 12 | `C[n+]1cc2c3c(ccc2c2ccc4cc5c(cc4c21)OCO5)OCO3` | CP252 | 17.78 | inhibitor, single point |
| 13 | `C[n+]1cc2c3c(ccc2c2ccc4cc5c(cc4c21)OCO5)OCO3` | CP203 | 19.01 | inhibitor, single point |
| 14 | `C[n+]1cc2c3c(ccc2c2ccc4cc5c(cc4c21)OCO5)OCO3` | CP305 | 12 | inhibitor, partial curve, poor fit |
| 15 | `C[n+]1cc2c3c(ccc2c2ccc4cc5c(cc4c21)OCO5)OCO3` | CP191 | 12.59 | inhibitor, single point |
| 16 | `C[n+]1cc2c3c(ccc2c2ccc4cc5c(cc4c21)OCO5)OCO3` | CP260 | 12.59 | inhibitor, single point |
| 17 | `C[n+]1cc2c3c(ccc2c2ccc4cc5c(cc4c21)OCO5)OCO3` | ATS189 | 15.85 | inhibitor, single point |
| 18 | `C[n+]1cc2c3c(ccc2c2ccc4cc5c(cc4c21)OCO5)OCO3` | DIV14 | 19.01 | inhibitor, single point |
| 19 | `C[n+]1cc2c3c(ccc2c2ccc4cc5c(cc4c21)OCO5)OCO3` | 3D7 | 15.85 | inhibitor, single point |
| 20 | `C[n+]1cc2c3c(ccc2c2ccc4cc5c(cc4c21)OCO5)OCO3` | TAB113 | 8.912 | inhibitor, single point |
| 21 | `NC(=O)N1c2ccccc2C=Cc2ccccc21` | CP203 | 0.0095 | inhibitor, full curve, poor fit |
| 22 | `NC(=O)N1c2ccccc2C=Cc2ccccc21` | P94_40 | 12.59 | inhibitor, single point |
| 23 | `NC(=O)N1c2ccccc2C=Cc2ccccc21` | CP211 | 15.1 | inhibitor, single point |
| 24 | `CCC1(c2ccccc2)C(=O)NC(=O)N(C)C1=O` (stereo not shown) | N140 | 15.85 | inhibitor, single point |
| 25 | `CCC1(c2ccccc2)C(=O)NC(=O)N(C)C1=O` (stereo not shown) | CP335 | 13.46 | inhibitor, single point |
| 26 | `CCC1(c2ccccc2)C(=O)NC(=O)N(C)C1=O` (stereo not shown) | PC26 | 16.94 | inhibitor, single point |
| 27 | `CCC1(c2ccccc2)C(=O)NC(=O)N(C)C1=O` (stereo not shown) | CP191 | 14.13 | inhibitor, single point |
| 28 | `CCC1(c2ccccc2)C(=O)NC(=O)N(C)C1=O` (stereo not shown) | DIV14 | 15.1 | inhibitor, partial curve, poor fit |
| 29 | `CCC1(c2ccccc2)C(=O)NC(=O)N(C)C1=O` (stereo not shown) | TAB165 | 12.59 | inhibitor, single point |
| 30 | `CCC1(c2ccccc2)C(=O)NC(=O)N(C)C1=O` (stereo not shown) | PAD | 17.78 | inhibitor, single point |
| 31 | `CCC1(c2ccccc2)C(=O)NC(=O)N(C)C1=O` (stereo not shown) | CP269 | 19.01 | inhibitor, single point |
| 32 | `CCC1(c2ccccc2)C(=O)NC(=O)N(C)C1=O` (stereo not shown) | GB4 | 16.94 | inhibitor, single point |
| 33 | `CCC1(c2ccccc2)C(=O)NC(=O)N(C)C1=O` (stereo not shown) | DIV17 | 19.01 | inhibitor, single point |
| 34 | `CCC1(c2ccccc2)C(=O)NC(=O)N(C)C1=O` (stereo not shown) | CP265 | 11.22 | inhibitor, single point |
| 35 | `CCC1(c2ccccc2)C(=O)NC(=O)N(C)C1=O` (stereo not shown) | P93_24 | 17.78 | inhibitor, single point |
| 36 | `CCC1(c2ccccc2)C(=O)NC(=O)N(C)C1=O` (stereo not shown) | CP260 | 17.78 | inhibitor, single point |
| 37 | `CCC1(c2ccccc2)C(=O)NC(=O)N(C)C1=O` (stereo not shown) | CP215 | 19.01 | inhibitor, single point |
| 38 | `CCC1(c2ccccc2)C(=O)NC(=O)N(C)C1=O` (stereo not shown) | SC27B | 17.78 | inhibitor, single point |
| 39 | `CCC1(c2ccccc2)C(=O)NC(=O)N(C)C1=O` (stereo not shown) | TAB109 | 15.85 | inhibitor, single point |
| 40 | `CCC1(c2ccccc2)C(=O)NC(=O)N(C)C1=O` (stereo not shown) | CP305 | 19.01 | inhibitor, single point |

Repeated from the top, 5 entries:

{"structure": "CC(=O)OC[C@H]1O[C@@](COC(C)=O)(O[C@H]2O[C@H](COC(C)=O)[C@@H](OC(C)=O)[C@H](OC(C)=O)[C@H]2OC(C)=O)[C@@H](OC(C)=O)[C@@H]1OC(C)=O", "setting": "N140", "fitted potency (µM)": "1.122", "remark": "inhibitor, single point"}
{"structure": "CC(=O)OC[C@H]1O[C@@](COC(C)=O)(O[C@H]2O[C@H](COC(C)=O)[C@@H](OC(C)=O)[C@H](OC(C)=O)[C@H]2OC(C)=O)[C@@H](OC(C)=O)[C@@H]1OC(C)=O", "setting": "CP256", "fitted potency (µM)": "3.162", "remark": "inhibitor, single point"}
{"structure": "C[n+]1cc2c3c(ccc2c2ccc4cc5c(cc4c21)OCO5)OCO3", "setting": "PC26", "fitted potency (µM)": "16.94", "remark": "inhibitor, single point"}
{"structure": "C[n+]1cc2c3c(ccc2c2ccc4cc5c(cc4c21)OCO5)OCO3", "setting": "GB4", "fitted potency (µM)": "19.01", "remark": "inhibitor, single point"}
{"structure": "C[n+]1cc2c3c(ccc2c2ccc4cc5c(cc4c21)OCO5)OCO3", "setting": "CP265", "fitted potency (µM)": "11.22", "remark": "inhibitor, single point"}